Measured values as given in paper PMC10045983.
Results are given in words; binding and its absence hold for the method and conditions named. Binding seen in cells or lysates may run through a third protein. These calls come from enrichment with a bait or labelling near it, and not all partners need be listed.

By UniProt entry, the sequences of proteins in these tests, tags left out.
UniProt Q14432: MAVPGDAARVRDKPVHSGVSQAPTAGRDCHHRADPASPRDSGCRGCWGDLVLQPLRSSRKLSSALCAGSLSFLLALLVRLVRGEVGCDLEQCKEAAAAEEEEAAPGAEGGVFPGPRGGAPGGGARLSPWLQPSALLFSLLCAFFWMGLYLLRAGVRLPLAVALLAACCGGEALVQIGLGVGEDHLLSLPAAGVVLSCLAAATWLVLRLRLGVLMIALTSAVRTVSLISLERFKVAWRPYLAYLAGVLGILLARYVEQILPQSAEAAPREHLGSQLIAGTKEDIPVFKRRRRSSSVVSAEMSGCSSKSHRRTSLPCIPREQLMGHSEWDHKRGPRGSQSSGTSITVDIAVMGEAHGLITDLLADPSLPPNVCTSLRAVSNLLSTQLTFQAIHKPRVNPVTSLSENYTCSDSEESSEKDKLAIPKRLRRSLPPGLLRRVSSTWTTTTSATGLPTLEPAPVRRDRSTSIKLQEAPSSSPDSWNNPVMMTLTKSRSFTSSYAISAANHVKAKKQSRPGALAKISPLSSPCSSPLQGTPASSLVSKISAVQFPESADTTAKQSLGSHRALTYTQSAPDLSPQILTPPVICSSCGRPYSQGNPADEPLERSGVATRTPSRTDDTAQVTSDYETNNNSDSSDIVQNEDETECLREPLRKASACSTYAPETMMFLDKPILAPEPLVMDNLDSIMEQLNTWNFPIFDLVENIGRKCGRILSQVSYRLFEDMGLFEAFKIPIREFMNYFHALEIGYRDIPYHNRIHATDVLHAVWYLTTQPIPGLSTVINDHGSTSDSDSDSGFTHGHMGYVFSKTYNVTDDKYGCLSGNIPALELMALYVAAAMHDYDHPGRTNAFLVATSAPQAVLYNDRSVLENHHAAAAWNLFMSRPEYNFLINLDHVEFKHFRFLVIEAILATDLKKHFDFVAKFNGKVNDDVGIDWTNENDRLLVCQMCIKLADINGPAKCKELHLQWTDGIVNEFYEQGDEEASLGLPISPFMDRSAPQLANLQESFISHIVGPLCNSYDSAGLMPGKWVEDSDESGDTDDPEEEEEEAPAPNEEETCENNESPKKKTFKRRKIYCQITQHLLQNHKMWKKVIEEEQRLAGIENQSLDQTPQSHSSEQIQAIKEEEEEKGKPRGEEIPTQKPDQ
UniProt P26431: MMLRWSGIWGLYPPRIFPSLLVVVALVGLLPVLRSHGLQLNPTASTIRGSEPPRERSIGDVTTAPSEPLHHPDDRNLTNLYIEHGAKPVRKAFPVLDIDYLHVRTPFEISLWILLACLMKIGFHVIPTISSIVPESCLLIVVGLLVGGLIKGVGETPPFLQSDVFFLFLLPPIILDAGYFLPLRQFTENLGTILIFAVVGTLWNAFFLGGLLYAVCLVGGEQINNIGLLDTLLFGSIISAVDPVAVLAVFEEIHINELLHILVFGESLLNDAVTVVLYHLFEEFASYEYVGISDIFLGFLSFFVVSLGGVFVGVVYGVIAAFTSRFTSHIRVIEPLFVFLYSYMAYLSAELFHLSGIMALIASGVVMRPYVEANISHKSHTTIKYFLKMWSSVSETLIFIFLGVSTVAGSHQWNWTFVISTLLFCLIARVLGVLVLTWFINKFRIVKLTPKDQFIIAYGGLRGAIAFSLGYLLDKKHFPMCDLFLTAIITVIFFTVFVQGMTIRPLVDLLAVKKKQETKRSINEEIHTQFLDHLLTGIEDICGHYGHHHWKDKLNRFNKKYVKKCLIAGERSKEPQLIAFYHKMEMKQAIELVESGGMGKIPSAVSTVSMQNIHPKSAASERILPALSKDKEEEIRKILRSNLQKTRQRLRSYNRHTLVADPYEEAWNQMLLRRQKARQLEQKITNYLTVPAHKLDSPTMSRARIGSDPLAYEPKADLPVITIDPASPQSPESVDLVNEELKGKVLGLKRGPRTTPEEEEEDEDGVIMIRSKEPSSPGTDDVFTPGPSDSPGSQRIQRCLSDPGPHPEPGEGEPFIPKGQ
UniProt P11507: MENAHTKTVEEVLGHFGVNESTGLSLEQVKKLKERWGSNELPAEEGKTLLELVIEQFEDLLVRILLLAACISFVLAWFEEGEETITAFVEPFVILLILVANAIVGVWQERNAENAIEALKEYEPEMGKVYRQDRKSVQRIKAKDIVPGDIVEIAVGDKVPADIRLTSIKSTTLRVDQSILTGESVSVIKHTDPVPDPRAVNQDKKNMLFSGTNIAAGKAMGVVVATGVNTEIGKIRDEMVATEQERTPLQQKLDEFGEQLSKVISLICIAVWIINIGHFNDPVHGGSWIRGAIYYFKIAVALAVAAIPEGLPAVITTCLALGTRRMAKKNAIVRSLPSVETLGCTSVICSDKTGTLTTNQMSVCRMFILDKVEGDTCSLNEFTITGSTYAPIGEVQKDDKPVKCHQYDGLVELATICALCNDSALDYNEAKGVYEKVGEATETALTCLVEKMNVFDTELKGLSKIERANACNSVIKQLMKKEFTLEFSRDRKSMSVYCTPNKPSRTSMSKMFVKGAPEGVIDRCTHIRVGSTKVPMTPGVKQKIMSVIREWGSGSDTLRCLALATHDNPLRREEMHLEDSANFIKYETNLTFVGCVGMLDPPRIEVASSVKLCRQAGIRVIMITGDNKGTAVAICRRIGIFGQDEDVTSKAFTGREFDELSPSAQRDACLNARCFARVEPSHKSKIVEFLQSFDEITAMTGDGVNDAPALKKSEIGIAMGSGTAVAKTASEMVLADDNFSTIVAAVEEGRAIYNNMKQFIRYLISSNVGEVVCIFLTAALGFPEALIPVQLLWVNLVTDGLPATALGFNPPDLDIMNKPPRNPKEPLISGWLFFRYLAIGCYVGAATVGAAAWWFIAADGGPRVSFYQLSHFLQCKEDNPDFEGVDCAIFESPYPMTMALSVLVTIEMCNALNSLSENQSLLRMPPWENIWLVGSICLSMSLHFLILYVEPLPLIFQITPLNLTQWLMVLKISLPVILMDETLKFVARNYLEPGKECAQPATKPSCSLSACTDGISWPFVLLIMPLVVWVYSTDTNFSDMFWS

Target: PDE3A1-mCherry (UniProt Q14432)
Experiment: affinity purification with mass spectrometry; PDE2A2-mCherry, PDE3A1-mCherry, PDE3A2-mCherry or mCherry purified from NRVM lysates on RFP-Trap beads, eluted with 8 mol/L urea, label-free quantification LC-MS/MS; mCherry alone as control

Row | binding | Substance
1 | binds | NHE1 (Na+/H+ exchanger 1) (from UniProt P26431 1-820)
2 | binds | SERCA2 (sarco-endoplasmic reticulum calcium ATPase 2) (from UniProt P11507 1-1043)
